Test results taken from patent US20070190043A1 (Biofrontera AG, priority 2003, published 2007).
Where two headings read alike, the source gives them in different places.

What was measured:
[1] = for plasma exposure: 2.5 mg/kg, female NZW rabbits
[2] = test system: T cells; test: cells; conditions: T-cell, 3 h, read-out: IC50 proliferation
[3] = last application day

Nc1nc2ccc(OC(F)(F)F)cc2s1 [Riluzole, 2-amino-6-(trifluoromethoxy)-benzothiazole]
plasma exposure ([1]; single dermal application, 4% cream in DAC Basiscreme): 363 ± 299 ng·h/mL | plasma exposure ([1]; single oral administration, suspension in 1% MC): 157 ± 46 ng·h/mL | plasma exposure topical versus oral ([1]; single topical 4% cream versus single oral suspension, 2.5 mg/kg each): more than twice as high | IC50 [2]: 43 µM | plasma exposure (mean) ([3]; oral 2.5 mg/kg for 8 consecutive days): 86 ng·h/mL | plasma exposure (mean) ([3]; topical 1% cream in DAC Basiscreme, twice daily 28 days): 129 ng·h/mL | plasma exposure (mean) ([3]; topical 2% cream in DAC Basiscreme, twice daily 28 days): 191 ng·h/mL | plasma exposure (mean) ([3]; topical 4% cream in DAC Basiscreme, twice daily 28 days): 347 ng·h/mL
